PubChem BioAssay AID2685 (National Center for Advancing Translational Sciences (NCATS), 2010)
The other results are listed elsewhere or left out. These are further read-outs of the screen, such as a control signal, another cell line or another target. No call is given for them. Most of these compounds were active or inconclusive in the main read-out, so they are no random draw. Words in brackets tell the shape of the fitted curve; partial curves, single points and poor fits give uncertain potencies.

Assay: qHTS Assay for Lipid Storage Modulators in Drosophila S3 Cells;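 as to cell number change: cells counted by Cell Tracker Red CMTPX staining in the red channel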
Conditions: BODIPY lipid droplet fluorescence, 18-24 h; for cell number change: measured here: cell count max response, cells fed with added oleic acid
How it was run: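 Drosophila S3 cells loaded with oleic acid (400 uM, as added) and compounds at several concentrations; lipid droplets imaged by 488-nm laser-scanning cytometry, 500–530 nm intensity and object ratio to cell channel. Percent activity normalized to 20 uM Triacsin C.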

[1] = measured here: lipid fluorescence (Fed channel) AC50, cells fed with added oleic acid
[2] = measured here: cell number channel AC50, cells fed with added oleic acid

Compound	cell number change [%]	AC50 [1]	AC50 [2]
C/C(=N\NC(=O)c1ccc(F)cc1)c1ccccn1	1.42	5.8 µM [falling, full curve]	
O=C1SC(SCc2ccccc2)=N/C1=C\c1ccco1	0.128		
O=C(CCSc1ccc(Br)cc1)Nc1cccnc1			6.51 µM [rising, single point]
O=C(Nc1ccccc1)/C(=C/c1ccc(O)cc1)NC(=O)c1ccco1	20.2		
FC(F)(F)C1CCCN(c2nsc3ccccc23)C1 (stereo not drawn)	84.2	5.62 µM [rising, single point]	20.6 µM [rising, partial curve]
CC(=O)Nc1ccc(NC(=O)c2ccccc2N(C)S(=O)(=O)c2ccc(C)cc2)cc1	-21.8	29.1 µM [falling, single point]	
CC(C)c1nc2sc3c(NCc4ccco4)ncnc3c2c2c1COC(C)(C)C2	-19.6	0.231 µM [rising, partial curve, poor fit]	
COc1cc(NC(=O)CN2CCN(c3ccccc3F)CC2)cc(OC)c1	-0.947		
CC(C)(C)c1ccc(O)c(O)c1	-9.7	0.0291 µM [falling, full curve]	0.184 µM [falling, partial curve]
COc1ccc(-c2oc(=O)c3cc(OC)c(OC)cc3c2/C=C/c2ccc(F)cc2)cc1	16.6	0.58 µM [falling, single point]	0.58 µM [falling, single point]
Cc1ccc(S(=O)(=O)N2CCN(S(=O)(=O)c3cccs3)CC2)cc1	10.3		
O=C(CSc1nnc(C2COc3ccccc3O2)o1)N1CCCc2ccccc21 (stereo not drawn)	11		
COc1ccc(C)cc1C1=CC(=O)C[C@H](c2ccc(F)cc2)C1	11.8	0.116 µM [falling, single point]	
COc1ccc(CNC(=O)C(C)Sc2nc3ccccc3c(=O)n2CCCN2CCOCC2)cc1 (stereo not drawn)	69.3		8.2 µM [rising, partial curve, poor fit]
O=C(NC1CCCCC1)c1ccc(CNc2c(N3CCOCC3)c(=O)c2=O)cc1	-9.12	4.11 µM [falling, partial curve]	
COc1ccc(NC(=O)C2CCN(S(=O)(=O)c3cccc4nonc34)CC2)cc1OC	-40.5		7.31 µM [falling, partial curve]
CCOc1ccccc1NC(=O)COc1ccc2ccc(=O)oc2c1	-15.8		
O=C(NNC(=O)c1ccccc1OCc1ccccc1)c1ccccc1O	-11.9	29.1 µM [falling, single point]	
Fc1cccc(Cl)c1COc1ccc(-c2nnco2)cc1	11.5	1.3 µM [falling, full curve]	0.58 µM [rising, partial curve, poor fit]
CCCN(C(=O)c1cc(S(=O)(=O)N2CCCCC2)ccc1Cl)C1CCS(=O)(=O)C1 (stereo not drawn)	23.9		4.61 µM [rising, full curve, poor fit]

Exported as labelled records: 3 of the compounds above
COc1ccc(CNC(=O)C(C)Sc2nc3ccccc3c(=O)n2CCCN2CCOCC2)cc1 (stereo not drawn)
  cell number change [%]: 69.3
  AC50 [2]: 8.2 µM [rising, partial curve, poor fit]
O=C(NC1CCCCC1)c1ccc(CNc2c(N3CCOCC3)c(=O)c2=O)cc1
  cell number change [%]: -9.12
  AC50 [1]: 4.11 µM [falling, partial curve]
COc1ccc(NC(=O)C2CCN(S(=O)(=O)c3cccc4nonc34)CC2)cc1OC
  cell number change [%]: -40.5
  AC50 [2]: 7.31 µM [falling, partial curve]

The listing continues.

Compound	cell number change [%]	AC50 [1]	AC50 [2]
COCCN(C(C)=O)c1nnc(-c2cnccn2)s1	25.7		2.91 µM [rising, full curve, poor fit]
CC(=O)Nc1cccc(-c2csc(Nc3cccc(C)n3)n2)c1	-22.4		
C#CCSc1nsc(SCC#C)c1C#N	-16.5	8.2 µM [falling, partial curve]	
NS(=O)(=O)c1ccc(N=Cc2c(O)c3ccccc3oc2=O)cc1	-7.16	2.06 µM [falling, partial curve]	0.651 µM [falling, full curve]
O=C(OCc1ccc(-c2ccccc2)cc1)c1cccc(O)c1	-14.6	4.61 µM [falling, partial curve, poor fit]	
COc1cccc(C(=O)Nc2c3c(nn2-c2ccc([N+](=O)[O-])cc2)CS(=O)(=O)C3)c1	-28.8	29.1 µM [falling, single point]	
Cc1cc(C)c(C(=O)C(C)OC(=O)C2=COCCO2)cc1C (stereo not drawn)	1.69	0.651 µM [rising, single point]	
Cc1onc(-c2ccccc2Cl)c1C(=O)Nc1cccc(S(=O)(=O)NC2=NCCC2)c1	17.3		
O=C(CN1C(=O)NC(Cc2c[nH]c3ccccc23)C1=O)Nc1cccc(S(=O)(=O)N2CCCCCC2)c1 (stereo not drawn)		18.4 µM [rising, single point]	
CCC1CCCCN1C(=O)c1ccccc1OC1CCN(S(C)(=O)=O)CC1 (stereo not drawn)	-12.1	0.00517 µM [falling, full curve, poor fit]	
CC1CCN(C(=O)COC(=O)[C@H](C)NS(=O)(=O)/C=C/c2ccccc2)CC1	-34.2	16.4 µM [falling, partial curve]	
COc1ccc(/C=N/NC(=S)N[C@H]2CC3CCC2C3)cc1 (stereo partly drawn)		0.731 µM [rising, full curve]	0.291 µM [rising, full curve, poor fit]
CCN1CCN(Cc2c(O)ccc3c(=O)c(-c4ccc(OC)c(OC)c4)c(C(F)(F)F)oc23)CC1	7.75		
CC(C)(C)c1cc(C(F)(F)F)c(C#N)c(=O)[nH]1	-9.08	0.411 µM [falling, partial curve, poor fit]	
CCOc1ccccc1OCC(=O)Nc1ccc2[nH]c(=O)[nH]c2c1	17.1	2.06 µM [rising, full curve, poor fit]	
COc1ccc(Cn2nnnc2C(c2cc3cc(C)ccc3[nH]c2=O)N2CCOCC2)cc1 (stereo not drawn)	-9.64	4.11 µM [falling, single point]	
O=S(=O)(Nc1nc2ccccc2nc1Nc1cccc(S(=O)(=O)N2CCCCC2)c1)c1ccccc1	-3.06		
CCCCOc1ccccc1Cn1c(=O)oc2ccc(C)cc21	-18.5	3.26 µM [rising, partial curve]	
CCOC(=O)C1=C(C)Nc2sc(C(=O)c3ccc(Br)cc3)c(N)c2C1c1ccc(C(=O)OC)cc1 (stereo not drawn)	116	0.184 µM [rising, full curve]	0.146 µM [rising, full curve]
Cc1ccc(NC(=O)CSc2ncn[nH]2)cc1S(=O)(=O)N1CCOCC1	22.4	20.6 µM [rising, single point]	

Compound	cell number change [%]	AC50 [1]	AC50 [2]
CCCN(C(=O)Cn1ncc2c([nH]c3ccccc32)c1=O)c1ccccc1C	-3.07	1.16 µM [falling, partial curve, poor fit]	
Cc1nn(C(C)C)c(C)c1CN1CCC(C(=O)Nc2cccc(-c3cccc(F)c3)c2)CC1	-20.7	31.6 µM [falling, single point]	
Cc1ccc(SCCN2CCC(NC(=O)OCc3ccccc3)CCC2=O)cc1 (stereo not drawn)	11.7		
CC(=O)c1cccc(NC(=O)C(C)OC(=O)CCn2c(C)csc2=O)c1 (stereo not drawn)	10.5	6.51 µM [falling, single point]	
COc1ccc2c(c1)OC[C@H]1[C@H]2N2C(=O)c3cc(OC)c(OC)cc3NC(=O)[C@@]2(C)[C@H]1c1ccccc1		4.11 µM [falling, single point]	
Cc1cccc(C)c1OC(=O)Cc1ccccc1[N+](=O)[O-]	29.6	8.2 µM [rising, partial curve, poor fit]	
O=C(COc1ccc(S(=O)(=O)Nc2ccccc2)cc1)NCc1ccccn1	8.96	1.84 µM [rising, partial curve]	
CCCCNC(=O)c1onc(CSc2ccccc2)c1C(=O)NCCCC	-16.5	1.46 µM [falling, single point]	4.11 µM [falling, single point]
S=c1nc(-c2ccco2)[nH][nH]1	11.7		
O=C(Nc1cnccn1)c1csc2ccccc12	143	6.51 µM [rising, single point]	14.6 µM [rising, partial curve]
Fc1ccc(CN2CCN(C(c3ccccc3)c3ccccc3)CC2)cc1		23.1 µM [falling, single point]	
COc1ccc(/C=C2\Oc3cc(OCC(=O)N4CCC[C@H]4C(=O)O)ccc3C2=O)c(OC)c1OC	6.8	29.1 µM [rising, single point]	
NC(=O)c1cc([N+](=O)[O-])ccc1NCc1cccc(N)c1	-19.3	7.31 µM [falling, partial curve, poor fit]	4.11 µM [falling, single point]
CC(=O)Nc1ccc(S(=O)(=O)N2CCC(C(=O)Nc3nccs3)CC2)cc1	-7.98	0.0164 µM [falling, full curve, poor fit]	
COc1ccc(CCNC(=O)c2c[nH]c3ccc(F)cc3c2=O)cc1OC	-18.2	0.00461 µM [falling, full curve, poor fit]	
COc1ccc(-n2nnnc2SCC(=O)N2C(C)CCCC2C)c(OC)c1 (stereo not drawn)	47.5	5.17 µM [rising, single point]	14.6 µM [rising, partial curve]
C/C(Cl)=C\Cn1c(NCCCn2ccnc2)nc2c1c(=O)n(C)c(=O)n2C	-10.8	0.164 µM [rising, full curve, poor fit]	
CC(C)c1ccc(C2C(C#N)=C(N)Oc3c2oc(CO)cc3=O)cc1 (stereo not drawn)	9.71	0.0184 µM [rising, full curve, poor fit]	
COc1cccc(-c2nnc(SCc3ccccn3)n2C)c1	15.5		
CCN(C(=O)COC(=O)CNC(=O)c1cccc(C)c1)c1c(N)n(Cc2ccccc2)c(=O)[nH]c1=O	-44.3		29.1 µM [falling, single point]
